Our source for the binding signal values is publication PMC7819943, “Rice protein-binding microarrays: a tool to detect cis-acting elements near promoter regions in rice”.

Some of the results follow.

The target in the test is T1, OsSMF1 (Oryza sativa, UniProt Q6ZLB0 1-436).
T1 sequence: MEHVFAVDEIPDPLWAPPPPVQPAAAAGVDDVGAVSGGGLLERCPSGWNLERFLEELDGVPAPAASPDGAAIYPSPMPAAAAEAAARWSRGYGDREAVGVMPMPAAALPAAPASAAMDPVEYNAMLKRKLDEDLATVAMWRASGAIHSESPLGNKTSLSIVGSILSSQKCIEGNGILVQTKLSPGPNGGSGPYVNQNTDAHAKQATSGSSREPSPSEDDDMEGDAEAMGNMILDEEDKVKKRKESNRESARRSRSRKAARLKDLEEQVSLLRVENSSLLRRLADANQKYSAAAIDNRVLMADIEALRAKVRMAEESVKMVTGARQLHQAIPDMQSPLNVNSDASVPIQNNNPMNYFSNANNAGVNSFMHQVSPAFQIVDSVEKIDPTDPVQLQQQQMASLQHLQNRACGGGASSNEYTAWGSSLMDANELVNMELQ
The experiment in a line: protein-binding microarray (RPBM); PBS, 2% BSA, 51.3 ng/ul salmon testes DNA, 50 uM zinc acetate, 200 nM TF, 25 C, 1 h; high values mean tight binding. The conditions noted are these: protein: recombinant; tags: N-terminal polyhistidine and DsRed monomer fusion (pET32a); chain copies: 2; label: CyDye5-dUTP incorporated in the synthesized complementary strand; 3' TTTTT single-stranded linker to array surface; dsDNA, one strand shown. A digest of the protocol:
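Per-feature fluorescence intensity (arbitrary units), read on an Axon 4000B scanner, is the binding signal. Transcription factors carrying an N-terminal polyhistidine tag and DsRed fusion were expressed in E. coli BL21-CodonPlus and purified on Ni–NTA. A custom Agilent array, made double-stranded by primer extension with Cy5-dUTP and blocked with 2% BSA, was incubated with 200 nM protein in PBS, 2% BSA, salmon testes DNA and 50 µM zinc acetate at 25 °C for 1 h and then washed.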
As for “CACGCAAGCGCCCCTTCCACGCGTCACGCCGTGCGGCGACCGGAGTCACCTAGTGCAG”, the binding signal is 6640 fluorescence intensity (a.u.).
For the sequence “GGCTTCGCCGACGGTGGCTCGGGCGACGGCGATGCTGGGGCGGAGTCACCTAGTGCAG”, the binding signal is 58600 fluorescence intensity (a.u.).
The figure for “TATCCAGTATCTACGTGGAATATTTTCTCTTTCGATCGTCCGGAGTCACCTAGTGCAG” is 9650 fluorescence intensity (a.u.); for “ATCTCATCTTCCCACTCAAATTCCACGTCCACCAACCGCCCGGAGTCACCTAGTGCAG” it is 5080 fluorescence intensity (a.u.).
Take “CACACACAATAGTTGCACAGTGCAGAGACAAGATTGGAAACGGAGTCACCTAGTGCAG”: the binding signal is 34900 fluorescence intensity (a.u.).
Consider “GTAATTAAATTAAATTAAATTGATTAATACCAACCCTGGTCGGAGTCACCTAGTGCAG”, for which the binding signal was 24500 fluorescence intensity (a.u.).
Regarding “AATGTTACATAGATGCCACATCAGCTGAAACAACCATCTACGGAGTCACCTAGTGCAG”, the binding signal was 13200 fluorescence intensity (a.u.).
“CGCGGCCGCCGGCGCTGTCCGGGACGCCCCGCACACCGTGCGGAGTCACCTAGTGCAG”: the binding signal is 5740 fluorescence intensity (a.u.).
For “AACGAGATGGATTGTATCTTCTGCACTCAGATGCCACTGCCGGAGTCACCTAGTGCAG” the value was 28200 fluorescence intensity (a.u.).
For “CCCCGGCGCGGCGTGACGAGGCCTTTTCTTCTTTCTTTCACGGAGTCACCTAGTGCAG”, the binding signal is 4540 fluorescence intensity (a.u.).
The figure for “ATAAACAAGCTATATGCTTACGTGGAAGAGAAAGATAAATCGGAGTCACCTAGTGCAG” is 5500 fluorescence intensity (a.u.); for “AAACAAAGATTGTATACACGTATATAAAGTATGTATACGCCGGAGTCACCTAGTGCAG” it is 3620 fluorescence intensity (a.u.).
For “AACGTGGAAGTGGATTGGGTGGTGGGTGGGGATCCACCTACGGAGTCACCTAGTGCAG”, the binding signal was 4180 fluorescence intensity (a.u.).
With “AAATTCGAATGATAGGAGGTGAAATTTTCTGTCACATGATCGGAGTCACCTAGTGCAG”, the binding signal is 17500 fluorescence intensity (a.u.).
The figure for “CAGGTTATCACACTCGACTGACTCAGTTCCACCAAAGGACCGGAGTCACCTAGTGCAG” is 5000 fluorescence intensity (a.u.).
In the case of “TTGTGAGCTGTGACTGTATCTGCCTTGAGGTCCCAAGTAACGGAGTCACCTAGTGCAG”, the binding signal is 6450 fluorescence intensity (a.u.).
The figure for “AGGCTGACATCCTTGACCCACATAATCGTTGACCTGGCTACGGAGTCACCTAGTGCAG” is 3260 fluorescence intensity (a.u.).
Consider “ACCTGGAGCCTCCACGTGGAGTGCAACTTCACCTACGTCGCGGAGTCACCTAGTGCAG”, for which the binding signal is 13600 fluorescence intensity (a.u.).
For “CAATTAATCACATGTTATTAGTACCTCGTTTTGCGTGAAACGGAGTCACCTAGTGCAG”, the binding signal was 5030 fluorescence intensity (a.u.).
For “CTGTTTCCACGTGACGGGGCGGATTATTTGGCTTGGTAGGCGGAGTCACCTAGTGCAG” the value was 5170 fluorescence intensity (a.u.).
“CCCTATGAACTTTACAATACCGTTTAAATTACATCATAAGCGGAGTCACCTAGTGCAG”: the binding signal is 3170 fluorescence intensity (a.u.).
With “ACGCCATGTCAATGCCACGTGGGACGAATATCAGTCAAAGCGGAGTCACCTAGTGCAG”, the binding signal is 10500 fluorescence intensity (a.u.).
For “TTCGCGGGTGATGTGTTTCTGTTTTGTCCTGAAATTACAGCGGAGTCACCTAGTGCAG” the value was 4830 fluorescence intensity (a.u.); for “AGCCATTACATCATCCAATTGCATATTTGCATTCTCATCTCGGAGTCACCTAGTGCAG”, 4970 fluorescence intensity (a.u.).
The figure for “GCTAGCACTCGCCTCCCTCTGCGCCCACGCCACGCTGTGGCGGAGTCACCTAGTGCAG” is 4110 fluorescence intensity (a.u.); for “AACCAATTCAAGTTAATATTGATTGGCTACACGCATATAGCGGAGTCACCTAGTGCAG” it is 3550 fluorescence intensity (a.u.).
Regarding “GATGGTAAATCTTTAACATATGCCTTGGAAGATGATGTCACGGAGTCACCTAGTGCAG”, the binding signal was 5090 fluorescence intensity (a.u.).
Turning to “CATCCTCAAGAGTTCGCCGACAGCCACCGGTGTCATCTCGCGGAGTCACCTAGTGCAG”, the binding signal was 3300 fluorescence intensity (a.u.).
For “CACGGACCCGAAACCACCACTCACACGACGACACGTCCCCCGGAGTCACCTAGTGCAG” the value was 5820 fluorescence intensity (a.u.); for “GCGGCGCTTGTCAAGCGCCGCCATTGCAGGACGAGCGAAGCGGAGTCACCTAGTGCAG”, 5080 fluorescence intensity (a.u.); for “ACGAGGATGCTGACGGCGGCGTTGCCTCCGCCGGCGCGACCGGAGTCACCTAGTGCAG”, 3500 fluorescence intensity (a.u.).
The figure for “GAGCATCCAAGGAACTTGCGTGGCCTGAGATCAACCAGACCGGAGTCACCTAGTGCAG” is 4740 fluorescence intensity (a.u.); for “CTAAATAGAACCACTTTACATTACTATGACATGGCCTGCTCGGAGTCACCTAGTGCAG” it is 5050 fluorescence intensity (a.u.).
“CTCCCTCTCCAACACATCGGCAACCAACCACCCTCAACCTCGGAGTCACCTAGTGCAG”: the binding signal was 3790 fluorescence intensity (a.u.).
On to “ATTATTCCTGGTTTTGGCTGACGTGGCTCCTTTGACTAGACGGAGTCACCTAGTGCAG”, for which the binding signal is 31400 fluorescence intensity (a.u.).
For “GTAACAGATTACATGAGGATTATGCGTCTGCATAGGTGGACGGAGTCACCTAGTGCAG” the value was 3780 fluorescence intensity (a.u.).
The figure for “GATCCACTTGCTTCTCTATGACACGGCAAGCCGAGCCATGCGGAGTCACCTAGTGCAG” is 5560 fluorescence intensity (a.u.); for “AAATTACTAGTGGATAATGATGTGTTATGCTTGTATGTTGCGGAGTCACCTAGTGCAG” it is 4550 fluorescence intensity (a.u.); for “AGAGTTGGATCAACTCCACCTAGGTTTAAAATGGAAATTTCGGAGTCACCTAGTGCAG” it is 3780 fluorescence intensity (a.u.).
For “ATCGACCATGGCTACTCTACGTACGATTACCTTGATCACCCGGAGTCACCTAGTGCAG”, the binding signal is 4250 fluorescence intensity (a.u.).
With “ATCTACTTTTAGATAAGCCATGACTAGGCTAGGTGATTGTCGGAGTCACCTAGTGCAG”, the binding signal was 5560 fluorescence intensity (a.u.).
The figure for “TGCAGGGGCGCAGCACGGGAGGGTGCTTGACGCATACAAGCGGAGTCACCTAGTGCAG” is 4030 fluorescence intensity (a.u.).
